These results are taken from US20090197811A1 (University of Southern California, priority 2007, published 2009).

This data set in a line: peptide made by a vendor. The settings on record: whole synthesis.

As for Ac-DWFKAFYDKVAEKFKEAF-NH2, the “purity (crude or final not stated)” value worked out at 80%.
